Assay results reported in the supplement of paper PMC10849652.
This is one part of the list.

Amino acid sequences for entries named in this document (tags omitted). A change or cut given only in a name is not applied to a line headed by its entry.
UniProt Q9Y289: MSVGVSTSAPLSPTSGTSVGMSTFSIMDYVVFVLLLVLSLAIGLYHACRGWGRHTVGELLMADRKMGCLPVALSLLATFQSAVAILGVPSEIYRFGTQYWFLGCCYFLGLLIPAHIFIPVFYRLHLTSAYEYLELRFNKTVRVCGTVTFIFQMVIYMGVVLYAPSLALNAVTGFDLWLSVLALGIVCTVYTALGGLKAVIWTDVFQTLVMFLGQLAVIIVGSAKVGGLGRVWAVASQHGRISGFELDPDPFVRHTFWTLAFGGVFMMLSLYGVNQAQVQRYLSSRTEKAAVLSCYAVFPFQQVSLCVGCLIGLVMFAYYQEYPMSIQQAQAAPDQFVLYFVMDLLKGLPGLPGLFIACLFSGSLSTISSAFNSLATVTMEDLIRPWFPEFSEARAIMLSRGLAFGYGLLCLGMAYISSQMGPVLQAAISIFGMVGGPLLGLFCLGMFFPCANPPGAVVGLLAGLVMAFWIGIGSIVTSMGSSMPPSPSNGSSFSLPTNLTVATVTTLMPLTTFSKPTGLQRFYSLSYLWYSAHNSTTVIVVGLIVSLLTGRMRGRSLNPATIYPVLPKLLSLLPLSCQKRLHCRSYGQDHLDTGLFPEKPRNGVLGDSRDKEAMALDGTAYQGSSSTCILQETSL
UniProt Q9HC21: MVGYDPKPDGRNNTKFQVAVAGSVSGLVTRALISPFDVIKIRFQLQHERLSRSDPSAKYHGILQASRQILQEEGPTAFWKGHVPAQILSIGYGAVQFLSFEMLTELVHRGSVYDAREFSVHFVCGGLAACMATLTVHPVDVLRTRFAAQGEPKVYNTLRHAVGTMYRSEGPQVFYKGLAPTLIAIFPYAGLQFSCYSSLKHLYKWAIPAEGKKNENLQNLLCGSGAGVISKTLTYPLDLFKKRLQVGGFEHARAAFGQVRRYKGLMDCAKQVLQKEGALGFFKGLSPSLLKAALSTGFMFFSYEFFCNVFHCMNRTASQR
UniProt P12235: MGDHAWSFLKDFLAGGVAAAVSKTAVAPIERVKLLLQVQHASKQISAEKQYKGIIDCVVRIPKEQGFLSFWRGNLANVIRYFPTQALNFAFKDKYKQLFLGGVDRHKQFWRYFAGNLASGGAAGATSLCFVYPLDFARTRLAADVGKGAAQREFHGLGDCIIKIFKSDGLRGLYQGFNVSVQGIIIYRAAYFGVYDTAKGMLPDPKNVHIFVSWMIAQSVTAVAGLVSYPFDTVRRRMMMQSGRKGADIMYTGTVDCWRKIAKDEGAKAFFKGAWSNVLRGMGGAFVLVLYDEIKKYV
UniProt P51531, whole entry, looked up: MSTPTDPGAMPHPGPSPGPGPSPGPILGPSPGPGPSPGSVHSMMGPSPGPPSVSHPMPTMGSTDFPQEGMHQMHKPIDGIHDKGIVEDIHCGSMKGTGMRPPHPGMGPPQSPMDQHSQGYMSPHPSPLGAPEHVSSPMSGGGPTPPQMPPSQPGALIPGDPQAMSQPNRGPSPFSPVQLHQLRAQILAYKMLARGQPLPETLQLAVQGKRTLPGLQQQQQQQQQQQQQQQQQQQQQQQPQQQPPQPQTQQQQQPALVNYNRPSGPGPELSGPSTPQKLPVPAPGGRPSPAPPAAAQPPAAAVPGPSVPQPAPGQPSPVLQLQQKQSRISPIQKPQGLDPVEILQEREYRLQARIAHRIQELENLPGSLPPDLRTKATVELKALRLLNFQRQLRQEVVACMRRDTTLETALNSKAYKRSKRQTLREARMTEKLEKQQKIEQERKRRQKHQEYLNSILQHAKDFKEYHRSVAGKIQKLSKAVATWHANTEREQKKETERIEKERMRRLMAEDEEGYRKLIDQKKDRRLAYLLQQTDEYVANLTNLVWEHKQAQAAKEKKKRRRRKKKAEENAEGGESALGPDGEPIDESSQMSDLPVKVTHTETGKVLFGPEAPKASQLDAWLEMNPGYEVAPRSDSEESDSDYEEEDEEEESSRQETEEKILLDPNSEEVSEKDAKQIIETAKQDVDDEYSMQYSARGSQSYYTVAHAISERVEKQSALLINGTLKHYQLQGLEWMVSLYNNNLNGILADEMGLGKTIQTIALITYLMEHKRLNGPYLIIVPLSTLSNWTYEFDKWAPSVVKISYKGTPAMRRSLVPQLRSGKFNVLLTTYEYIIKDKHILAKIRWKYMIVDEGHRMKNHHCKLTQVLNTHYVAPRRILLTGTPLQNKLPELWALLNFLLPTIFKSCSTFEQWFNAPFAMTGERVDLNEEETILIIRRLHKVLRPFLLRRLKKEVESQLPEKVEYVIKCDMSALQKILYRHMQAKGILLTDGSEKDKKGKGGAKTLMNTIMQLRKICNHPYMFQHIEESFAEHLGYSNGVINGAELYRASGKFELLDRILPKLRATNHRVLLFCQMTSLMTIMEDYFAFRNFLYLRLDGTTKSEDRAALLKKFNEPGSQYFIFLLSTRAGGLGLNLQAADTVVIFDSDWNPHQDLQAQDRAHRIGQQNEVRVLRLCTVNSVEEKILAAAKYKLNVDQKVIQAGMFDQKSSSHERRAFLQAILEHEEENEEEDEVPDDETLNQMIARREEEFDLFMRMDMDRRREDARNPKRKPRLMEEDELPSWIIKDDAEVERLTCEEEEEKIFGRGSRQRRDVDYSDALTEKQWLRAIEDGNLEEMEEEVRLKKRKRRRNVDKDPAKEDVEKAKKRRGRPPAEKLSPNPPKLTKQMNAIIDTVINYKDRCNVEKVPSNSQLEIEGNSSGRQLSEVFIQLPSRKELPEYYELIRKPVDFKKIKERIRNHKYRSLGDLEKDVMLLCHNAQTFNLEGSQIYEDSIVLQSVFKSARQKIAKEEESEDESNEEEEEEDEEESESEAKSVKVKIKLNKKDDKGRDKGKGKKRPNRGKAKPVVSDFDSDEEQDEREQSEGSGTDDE
UniProt Q9Y6M5: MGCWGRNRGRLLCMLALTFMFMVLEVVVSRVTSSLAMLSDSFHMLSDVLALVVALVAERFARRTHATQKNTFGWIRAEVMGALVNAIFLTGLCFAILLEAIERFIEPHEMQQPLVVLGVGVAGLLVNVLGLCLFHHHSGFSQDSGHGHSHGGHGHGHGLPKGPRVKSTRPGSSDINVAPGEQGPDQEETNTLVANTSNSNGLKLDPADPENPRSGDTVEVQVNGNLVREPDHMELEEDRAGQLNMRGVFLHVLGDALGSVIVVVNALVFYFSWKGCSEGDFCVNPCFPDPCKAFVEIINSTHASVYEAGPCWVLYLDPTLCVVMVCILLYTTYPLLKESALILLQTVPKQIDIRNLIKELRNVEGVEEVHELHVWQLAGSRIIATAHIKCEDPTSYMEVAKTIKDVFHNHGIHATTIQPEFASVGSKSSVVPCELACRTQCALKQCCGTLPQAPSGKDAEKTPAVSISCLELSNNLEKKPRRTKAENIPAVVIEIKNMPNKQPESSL
UniProt Q9BQT8: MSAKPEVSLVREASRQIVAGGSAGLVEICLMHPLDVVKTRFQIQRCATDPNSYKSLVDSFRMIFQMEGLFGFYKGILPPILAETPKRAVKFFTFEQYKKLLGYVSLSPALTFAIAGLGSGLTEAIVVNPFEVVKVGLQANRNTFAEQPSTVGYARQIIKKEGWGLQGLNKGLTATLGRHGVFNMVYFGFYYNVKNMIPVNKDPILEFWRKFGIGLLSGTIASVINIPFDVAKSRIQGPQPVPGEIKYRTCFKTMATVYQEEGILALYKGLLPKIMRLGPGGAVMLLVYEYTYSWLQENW
UniProt P02730: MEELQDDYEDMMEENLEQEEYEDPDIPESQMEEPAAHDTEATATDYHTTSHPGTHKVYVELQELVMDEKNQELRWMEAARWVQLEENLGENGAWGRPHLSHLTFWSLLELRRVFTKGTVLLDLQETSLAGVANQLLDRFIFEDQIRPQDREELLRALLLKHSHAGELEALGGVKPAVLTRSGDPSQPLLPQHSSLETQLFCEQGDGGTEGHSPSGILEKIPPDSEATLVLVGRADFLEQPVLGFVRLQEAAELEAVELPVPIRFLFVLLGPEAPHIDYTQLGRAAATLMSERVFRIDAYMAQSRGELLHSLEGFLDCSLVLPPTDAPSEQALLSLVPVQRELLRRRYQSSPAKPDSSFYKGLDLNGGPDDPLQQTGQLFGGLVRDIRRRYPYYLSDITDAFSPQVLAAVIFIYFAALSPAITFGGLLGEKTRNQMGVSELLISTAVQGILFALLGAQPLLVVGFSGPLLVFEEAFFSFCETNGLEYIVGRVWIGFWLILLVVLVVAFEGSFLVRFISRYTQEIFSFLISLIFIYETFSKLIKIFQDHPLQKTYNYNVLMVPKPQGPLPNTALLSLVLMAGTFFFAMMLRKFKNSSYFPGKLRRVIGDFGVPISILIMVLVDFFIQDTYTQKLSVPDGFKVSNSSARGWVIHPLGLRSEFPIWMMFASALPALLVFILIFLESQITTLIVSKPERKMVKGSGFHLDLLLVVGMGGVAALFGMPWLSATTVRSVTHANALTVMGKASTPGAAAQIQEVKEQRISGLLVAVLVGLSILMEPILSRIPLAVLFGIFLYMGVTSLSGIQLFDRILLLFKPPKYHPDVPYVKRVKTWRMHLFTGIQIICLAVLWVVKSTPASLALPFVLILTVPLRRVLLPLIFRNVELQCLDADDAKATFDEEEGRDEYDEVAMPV
UniProt P31641: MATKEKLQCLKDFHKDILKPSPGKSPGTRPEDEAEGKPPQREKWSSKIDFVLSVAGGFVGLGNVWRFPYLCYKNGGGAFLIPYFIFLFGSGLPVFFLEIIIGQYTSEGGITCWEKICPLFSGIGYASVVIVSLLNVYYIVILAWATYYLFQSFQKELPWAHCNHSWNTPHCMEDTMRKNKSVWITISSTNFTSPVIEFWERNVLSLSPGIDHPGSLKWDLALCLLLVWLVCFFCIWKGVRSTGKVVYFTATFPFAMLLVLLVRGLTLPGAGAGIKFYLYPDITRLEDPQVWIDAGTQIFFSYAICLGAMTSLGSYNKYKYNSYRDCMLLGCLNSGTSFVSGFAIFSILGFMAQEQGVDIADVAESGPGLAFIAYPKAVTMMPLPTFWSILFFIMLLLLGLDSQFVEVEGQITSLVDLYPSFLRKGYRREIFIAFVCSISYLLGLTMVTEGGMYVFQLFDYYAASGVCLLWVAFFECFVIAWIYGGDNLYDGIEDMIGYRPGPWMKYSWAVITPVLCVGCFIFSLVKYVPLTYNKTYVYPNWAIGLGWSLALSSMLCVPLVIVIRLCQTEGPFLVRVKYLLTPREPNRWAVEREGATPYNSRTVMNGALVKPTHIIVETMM
UniProt P04920: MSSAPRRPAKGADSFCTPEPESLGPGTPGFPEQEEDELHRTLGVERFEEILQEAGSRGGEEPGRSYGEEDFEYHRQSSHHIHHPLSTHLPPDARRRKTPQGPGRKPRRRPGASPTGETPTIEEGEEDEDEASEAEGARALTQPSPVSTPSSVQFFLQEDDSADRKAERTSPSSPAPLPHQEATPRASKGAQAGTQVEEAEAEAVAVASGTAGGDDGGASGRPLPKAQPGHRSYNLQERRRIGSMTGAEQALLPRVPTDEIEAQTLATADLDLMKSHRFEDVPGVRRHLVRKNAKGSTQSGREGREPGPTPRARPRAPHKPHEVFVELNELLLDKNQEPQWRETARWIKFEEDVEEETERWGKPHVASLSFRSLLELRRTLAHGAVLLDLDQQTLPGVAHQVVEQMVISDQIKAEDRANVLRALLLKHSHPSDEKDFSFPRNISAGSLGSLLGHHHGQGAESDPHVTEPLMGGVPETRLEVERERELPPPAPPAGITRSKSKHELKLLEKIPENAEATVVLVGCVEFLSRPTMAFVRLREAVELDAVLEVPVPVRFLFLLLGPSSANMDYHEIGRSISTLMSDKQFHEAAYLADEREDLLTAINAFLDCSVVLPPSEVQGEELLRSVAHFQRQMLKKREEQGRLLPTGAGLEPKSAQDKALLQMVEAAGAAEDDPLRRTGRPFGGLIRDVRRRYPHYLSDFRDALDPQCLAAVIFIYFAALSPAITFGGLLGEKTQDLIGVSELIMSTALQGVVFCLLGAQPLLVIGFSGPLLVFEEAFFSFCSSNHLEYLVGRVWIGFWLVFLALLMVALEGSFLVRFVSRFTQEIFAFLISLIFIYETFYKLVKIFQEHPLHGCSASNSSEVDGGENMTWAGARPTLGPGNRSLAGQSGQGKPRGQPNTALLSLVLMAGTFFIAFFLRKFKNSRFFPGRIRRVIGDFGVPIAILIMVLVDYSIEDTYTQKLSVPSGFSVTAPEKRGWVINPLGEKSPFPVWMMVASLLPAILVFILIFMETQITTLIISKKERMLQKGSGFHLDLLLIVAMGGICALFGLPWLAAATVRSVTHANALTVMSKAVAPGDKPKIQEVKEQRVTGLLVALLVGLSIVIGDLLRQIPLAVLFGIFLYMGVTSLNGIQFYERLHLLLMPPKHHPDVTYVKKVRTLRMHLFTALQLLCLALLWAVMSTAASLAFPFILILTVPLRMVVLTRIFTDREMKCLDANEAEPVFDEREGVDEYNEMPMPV

How the values were obtained:
Test in all cases: log2 fold change, soluble protein after heating vs DMSO (PISA); higher = thermal stabilisation; K562 lysate, 10 uM; active = over 0.2 and 3.5 SD of the protein, either way, in both replicates (recomputed)
[1] = compound: C=CC(=O)N1CCC[C@@H](n2nc(-c3ccc(Oc4ccccc4)cc3)c3c(N)ncnc32)C1 [ibrutinib]
Outline: (§1)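 Dounce homogenisation of K562 pellets in PBS pH 7.4 with 1 mM MgCl2 produced a crude extract, used at 1 mg/mL protein. Exposure to 10 μM compound lasted 30 min, and aliquots were then heated for 3 min across 48°C-58°C, pooled and brought to 0.5% NP-40 at 4°C. The supernatant after 21,000xg for 90 min was quantified by TMTpro 16plex LC-MS/MS with channel sums equalised. Duplicate values are given as log-two fold change in thermal stability relative to solvent controls.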

[2] = compound: CC(=O)c1cnc2ccc(-c3cc(Cl)c(O)c(Cl)c3)nc2c1N[C@H]1CC[C@H](CN(C)C)CC1
Outline: as §1

[3] = compound: CC(C)(C)Cn1c(N)nc2ccc(-c3[nH]c(C(C)(C)C)nc3-c3ccc(F)cc3)nc21 [ralimetinib]
Outline: as §1

[4] = compound: CC(C)(O)CC(=O)NCCn1ccc2ncnc(Nc3ccc(Oc4cccc(C(F)(F)F)c4)c(Cl)c3)c21
Outline: as §1

[5] = compound: CC(C)C1=C2N=C(C=C(N2N=C1)NCC3=CC=CC=C3)NCCCCCCN
Outline: as §1

[6] = compound: CC1=C(C(CC(=O)N1)C2=CC=C(C=C2)C(F)(F)F)C(=O)NC3=C(C=C4C(=C3)C=NN4)F
Outline: as §1

[7] = compound: CC1=C(C2=C(C=C1)C(=O)C3=CC=CC=C3N2CCCN)C
Outline: as §1

[8] = compound: CC1=C(C=C(C=C1)NC(=O)C2=CC(=CC=C2)C(C)(C)C#N)NC3=CC4=C(C=C3)N=CN(C4=O)C
Outline: as §1

[9] = compound: CC1=C(C=C(C=C1)NC(=O)C2=CC(=CC=C2)N(C)C)NC(=O)C3=CC=C(C=C3)O
Outline: as §1

[10] = compound: CC1=CC=C(C=C1)SC2=C3C=C(SC3=CN=C2)C(=O)N
Outline: as §1

[11] = compound: CCCS(=O)(=O)Nc1ccc(F)c(C(=O)c2c[nH]c3ncc(-c4ccc(Cl)cc4)cc23)c1F [vemurafenib]
Outline: as §1

[12] = compound: CCCS(=O)(=O)Nc1ccc(F)c(C(=O)c2c[nH]c3ncc(Cl)cc23)c1F
Outline: as §1

[13] = compound: CCN(CCCOc1ccc2c(Nc3cc(CC(=O)Nc4cccc(F)c4)[nH]n3)ncnc2c1)CCOP(=O)(O)O [barasertib]
Outline: as §1

[14] = compound: CC[C@@H]1C(=O)N(C)c2cnc(Nc3ccc(C(=O)NC4CCN(C)CC4)cc3OC)nc2N1C1CCCC1
Outline: as §1

[15] = compound: CC[C@@H]1C(=O)N(C)c2cnc(Nc3ccc(C(=O)N[C@H]4CC[C@H](N5CCN(CC6CC6)CC5)CC4)cc3OC)nc2N1C(C)C [volasertib]
Outline: as §1

[16] = compound: CCn1c(C(=O)N(C2CC2)C2CC2)cc2c3c(ncn3C)c(Nc3cc(C)n(C)n3)nc21
Outline: as §1

[17] = compound: CCn1cc(-c2ccnc3[nH]c(-c4cccc(CN(C)C)c4)cc23)c(-c2ccc(NC(=O)N(C)C)cc2)n1
Outline: as §1

[18] = compound: CN1CCC(CNc2ccc3ncc(-c4cccc(OC(F)(F)F)c4)n3n2)CC1
Outline: as §1

[19] = compound: CN1CCN(CCOc2cc(OC3CCOCC3)c3c(Nc4c(Cl)ccc5c4OCO5)ncnc3c2)CC1 [saracatinib]
Outline: as §1

[20] = compound: CN1CCN(c2nc(C3=C(c4c[nH]c5ccccc45)C(=O)NC3=O)c3ccccc3n2)CC1 [sotrastaurin]
Outline: as §1

Measured: log2 fold change

SLC5A6 (UniProt Q9Y289)
inactive: [1] 0.065 | [2] -0.025 | [3] 0.009 | [4] 0.006 | [5] -0.016 | [6] -0.049 | [7] -0.033 | [8] 0.022 | [9] -0.032 | [10] -0.014 | [11] 0.038 | [12] 0.02 | [13] -0.007 | [14] 0.029 | [15] 0.015 | [16] -0.003 | [17] 0.167 | [18] 0.02 | [19] 0.036 | [20] 0.017

SLC25A19 (UniProt Q9HC21)
inactive: [1] 0.045 | [2] 0.02 | [3] 0.009 | [4] 0 | [5] 0.033 | [6] 0.033 | [7] 0.039 | [8] -0.015 | [9] 0.019 | [10] 0.07 | [11] -0.061 | [12] 0.019 | [13] 0.016 | [14] -0.027 | [15] 0.054 | [16] -0.026 | [17] -0.002 | [18] -0.035 | [19] 0.017 | [20] 0.027

SLC25A4 (UniProt P12235)
inactive: [1] 0.047 | [2] 0.023 | [3] 0.067 | [4] 0.021 | [5] -0.011 | [6] 0.014 | [7] 0.033 | [8] -0.024 | [9] -0.002 | [10] 0.059 | [11] -0.026 | [12] 0.004 | [13] 0 | [14] -0.074 | [15] 0.059 | [16] 0.068 | [17] -0.006 | [18] 0.052 | [19] -0.021 | [20] -0.018

SLC25A15 (UniProt Q9Y619)
inactive: [1] 0 | [2] -0.012 | [3] 0.022 | [4] -0.035 | [5] -0.027 | [6] -0.045 | [7] 0.037 | [8] -0.001 | [9] -0.012 | [10] -0.005 | [11] 0.009 | [12] -0.003 | [13] -0.004 | [14] 0.031 | [15] 0.031 | [16] 0.004 | [17] -0.084 | [18] 0.038 | [19] -0.01 | [20] 0.027

SMARCA2 (UniProt P51531)
inactive: [1] 0.005 | [2] -0.006 | [3] 0.031 | [4] -0.011 | [5] 0.036 | [6] 0.016 | [7] -0.044 | [8] -0.015 | [9] 0.012 | [10] 0.013 | [11] 0.041 | [12] 0.04 | [13] 0.061 | [14] 0.075 | [15] -0.024 | [16] 0.037 | [17] 0.129 | [18] -0.069 | [19] 0.042 | [20] -0.011

SLC30A1 (UniProt Q9Y6M5)
inactive: [1] 0.001 | [2] -0.012 | [3] 0.014 | [4] -0.063 | [5] -0.069 | [6] 0.004 | [7] 0.001 | [8] 0.049 | [9] -0.012 | [10] -0.004 | [11] 0.004 | [12] 0.013 | [13] -0.018 | [14] 0.043 | [15] 0.009 | [16] -0.041 | [17] -0.037 | [18] 0.049 | [19] -0.011 | [20] -0.033

SLC25A32 (UniProt Q9H2D1)
inactive: [1] 0.029 | [2] 0.005 | [3] 0.006 | [4] -0.017 | [5] -0.017 | [6] -0.03 | [7] -0.031 | [8] 0.048 | [9] -0.021 | [10] -0.007 | [11] 0.053 | [12] 0.01 | [13] -0.012 | [14] -0.013 | [15] 0.002 | [16] -0.045 | [17] -0.129 | [18] 0.054 | [19] 0.029 | [20] 0.007

SLC25A21 (UniProt Q9BQT8)
inactive: [1] -0.027 | [2] -0.016 | [3] 0.026 | [4] -0.02 | [5] 0.002 | [6] 0.01 | [7] -0.056 | [8] -0.002 | [9] -0.007 | [10] 0.03 | [11] -0.041 | [12] -0.013 | [13] -0.001 | [14] -0.024 | [15] 0.027 | [16] -0.034 | [17] -0.104 | [18] 0.038 | [19] -0.017 | [20] 0.015

SMAD9 (UniProt O15198)
inactive: [1] -0.025 | [2] -0.018 | [3] -0.034 | [4] 0.029 | [5] 0.021 | [6] -0.038 | [7] 0.079 | [8] -0.028 | [9] -0.072 | [10] -0.029 | [11] -0.045 | [12] -0.003 | [13] 0.032 | [14] -0.011 | [15] 0.024 | [16] 0.111 | [17] 0.021 | [18] 0.048 | [19] 0.08 | [20] 0.007

SLC39A3 (UniProt Q9BRY0)
inactive: [1] 0.005 | [2] 0.009 | [3] 0.178 | [4] 0.041 | [5] -0.045 | [6] 0.063 | [7] 0.009 | [8] 0.085 | [9] 0.008 | [10] 0.018 | [11] -0.053 | [12] 0.025 | [13] -0.003 | [14] -0.037 | [15] 0.053 | [16] -0.002 | [17] -0.096 | [18] 0.062 | [19] 0.031 | [20] -0.03

SLC25A37 (UniProt Q9NYZ2)
inactive: [1] 0.031 | [2] 0.012 | [3] -0.01 | [4] -0.066 | [5] 0.01 | [6] -0.038 | [7] -0.071 | [8] 0.054 | [9] -0.103 | [10] 0.046 | [11] 0 | [12] 0.021 | [13] -0.038 | [14] 0.016 | [15] 0.035 | [16] -0.081 | [17] -0.038 | [18] 0.082 | [19] 0.008 | [20] 0.013

SLC4A1 (UniProt P02730)
inactive: [1] 0.082 | [2] -0.036 | [3] -0.02 | [4] -0.098 | [5] -0.008 | [6] 0.089 | [7] 0.039 | [8] -0.002 | [9] -0.018 | [10] -0.056 | [11] -0.052 | [12] 0.035 | [13] 0.021 | [14] 0.005 | [15] 0.064 | [16] -0.089 | [17] 0.045 | [18] -0.074 | [19] 0.045 | [20] 0.104

SLC6A6 (UniProt P31641)
inactive: [1] 0.015 | [2] -0.014 | [3] 0.011 | [4] -0.139 | [5] -0.036 | [6] 0.024 | [7] 0.066 | [8] 0 | [9] -0.022 | [10] -0.022 | [11] 0.15 | [12] -0.004 | [13] 0.006 | [14] 0.018 | [15] 0.014 | [16] 0.002 | [17] 0.115 | [18] -0.047 | [19] -0.059 | [20] 0.016

SLC4A2 (UniProt P04920)
inactive: [1] 0.019 | [2] 0.024 | [3] 0.009 | [4] -0.077 | [5] -0.039 | [6] -0.114 | [7] 0.016 | [8] 0.034 | [9] -0.09 | [10] 0.008 | [11] 0.005 | [12] 0.002 | [13] -0.023 | [14] 0.03 | [15] -0.023 | [16] 0.015 | [17] -0.018 | [18] 0.041 | [19] 0.022 | [20] 0.039

SLC38A2 (UniProt Q96QD8)
inactive: [1] 0.039 | [2] -0.015 | [3] 0.001 | [4] 0.03 | [5] -0.101 | [6] -0.042 | [7] 0.018 | [8] -0.036 | [9] -0.057 | [10] 0.024 | [11] -0.086 | [12] -0.037 | [13] 0.042 | [14] -0.028 | [15] 0.078 | [16] 0.089 | [17] -0.078 | [18] 0.099 | [19] -0.056 | [20] 0.027

Random excerpt: two records from the list
SLC4A2 (UniProt P04920)
inactive: [1] 0.019 | [2] 0.024 | [3] 0.009 | [4] -0.077 | [5] -0.039 | [6] -0.114 | [7] 0.016 | [8] 0.034 | [9] -0.09 | [10] 0.008 | [11] 0.005 | [12] 0.002 | [13] -0.023 | [14] 0.03 | [15] -0.023 | [16] 0.015 | [17] -0.018 | [18] 0.041 | [19] 0.022 | [20] 0.039

SLC25A37 (UniProt Q9NYZ2)
inactive: [1] 0.031 | [2] 0.012 | [3] -0.01 | [4] -0.066 | [5] 0.01 | [6] -0.038 | [7] -0.071 | [8] 0.054 | [9] -0.103 | [10] 0.046 | [11] 0 | [12] 0.021 | [13] -0.038 | [14] 0.016 | [15] 0.035 | [16] -0.081 | [17] -0.038 | [18] 0.082 | [19] 0.008 | [20] 0.013

Further results:

SLC2A3 (UniProt P11169)
inactive: [1] 0.005 | [2] 0.02 | [3] -0.002 | [4] 0 | [5] -0.024 | [6] -0.032 | [7] -0.035 | [8] -0.014 | [9] 0.022 | [10] -0.026 | [11] 0.002 | [12] -0.011 | [13] 0.015 | [14] 0.042 | [15] 0.005 | [16] -0.048 | [17] -0.022 | [18] 0.084 | [19] -0.037 | [20] 0.036
